In PMC5352113:
No constants are given. Whether binding was seen depends on the method and setting. In cells and extracts the contact can be indirect. Binding calls can cover weak binding; strength is not graded here.

Target: T1, vascular endothelial (VE)-cadherin (human (endogenous in BLM, A375, MDA-MB-468, SKBR3)) (UniProt P33151)
T1 sequence: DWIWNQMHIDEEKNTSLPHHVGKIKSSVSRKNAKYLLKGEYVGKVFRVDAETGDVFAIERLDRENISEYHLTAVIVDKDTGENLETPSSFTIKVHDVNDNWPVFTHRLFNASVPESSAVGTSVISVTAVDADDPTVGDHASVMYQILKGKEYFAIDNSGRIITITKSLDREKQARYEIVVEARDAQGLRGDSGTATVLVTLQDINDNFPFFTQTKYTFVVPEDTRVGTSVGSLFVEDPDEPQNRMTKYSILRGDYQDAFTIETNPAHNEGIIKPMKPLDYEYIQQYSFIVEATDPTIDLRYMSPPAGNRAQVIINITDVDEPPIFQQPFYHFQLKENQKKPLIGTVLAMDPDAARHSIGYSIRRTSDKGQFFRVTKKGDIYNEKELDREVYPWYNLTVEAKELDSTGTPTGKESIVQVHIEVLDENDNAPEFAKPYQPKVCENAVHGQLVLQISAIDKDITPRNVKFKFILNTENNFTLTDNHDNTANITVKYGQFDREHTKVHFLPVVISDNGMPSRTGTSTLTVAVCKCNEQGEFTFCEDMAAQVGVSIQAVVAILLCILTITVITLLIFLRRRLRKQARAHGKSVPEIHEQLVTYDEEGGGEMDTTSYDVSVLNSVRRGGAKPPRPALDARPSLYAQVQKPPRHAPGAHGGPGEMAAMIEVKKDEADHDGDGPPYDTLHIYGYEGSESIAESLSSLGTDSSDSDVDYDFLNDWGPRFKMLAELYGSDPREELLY
Test: co-IP; 500 μg of lysate (1% Igepal, 100 mM NaCl, 2 mM MgCl2, 10% glycerol, 50 mM Tris-HCl) of BLM and MDA-MB-468 cells (Figure 3b also A375 and SKBR3), immunoprecipitated with anti-VE-cadherin, anti-α2 integrin, anti-αv integrin or control antibodies and protein G sepharose; western blot; also after siRNA against α2 or αv integrin

binding	Substance
binds	Ras
binds	αV integrin (human (endogenous in BLM, MDA-MB-468))
